Laboratory results: PubChem BioAssay AID504791 (Drosophila RNAi Screening Center, 2011)
Aim: 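Factors in Argonaute-based small RNA production and activity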 (primary screen). Cells: Drosophila S2-derived reporter cells. Reagent: long dsRNA against Drosophila genes, about 150-250 ng dsRNA per well (siRNA assay); about 80-120 ng (miRNA assay). Duration: about 5 days (siRNA assay); about 4 days (miRNA assay). Conditions: copper sulfate induction of reporters: 25 µM (siRNA assay); 200 mM stated (miRNA assay), 1-2 days before reading. Measurement: 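Per-well ratio of Renilla over firefly light, expressed relative to that plate's average ratio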. Scale: siRNA reporter hit score: higher = 3 marks a strong hit with raised ratio; -3 a strong hit with lowered ratio. Active means: 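First-pass picks had plate-scaled ratios over 1.5 for the siRNA assay, over 1.6 for the miRNA assay, or under 0.6; two distinct dsRNAs had to score alike on retest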.
The deposit covers about 23,000 reagents; shown is a random part of those that have a named target and a result. Over the whole deposit, 199 (0.86%) were called active. 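Plate-scaled ratios behind the calls are not deposited; printed light signals are raw; many rows marked increased or decreased are still called inactive.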 Entries without a mark were called inactive. Names joined by + are all predicted targets of the reagent.

siRNA reporter hit score	stable siRNA reporter change	miRNA reporter change	stable assay Renilla, run 1 (luminescence)	stable assay firefly, run 1 (luminescence)	gene	DRSC id
			37634	1.41e6	Kebab	DRSC00827
			7414	3.86e5	Timp	DRSC17082
			7316	4.44e5	CG9555	DRSC03264
			5527	3.38e5	CG30065	DRSC05420
			6358	3.01e5	Slh	DRSC00789
	reporter ratio lowered past the hit cutoff		5496	5.63e5	Polr3H	DRSC10817
			11891	3.97e5	Naprt	DRSC00630
			10167	6.46e5	Ip6k	DRSC04054
			3687	4.23e5	mRpS21	DRSC12965
			7711	4.39e5	mRpS21	DRSC21357
			6715	3.82e5	Acp29AB	DRSC01857
			8044	3.00e5	sff	DRSC10590
			6570	3.47e5	CG13339	DRSC06373
			8641	5.35e5	CG18304	DRSC02664
			6622	4.77e5	nop5	DRSC03582
			6246	5.58e5	CG13737	DRSC10064
			5839	3.67e5	Jon99Fii + Jon99Cii + Jon99Ciii + 1 more	DRSC15298
			6691	3.82e5	vari	DRSC03202
			8326	4.93e5	CG7367	DRSC03049
			7259	4.55e5	Ance-3	DRSC02648
			7423	5.01e5	Ance-3	DRSC02649
			6630	5.21e5	Alp2	DRSC04354
			4347	2.33e5	mtgo	DRSC02245
			3931	2.99e5	mtgo	DRSC02246
			9687	2.22e6	mtgo	DRSC02769
			9606	5.10e5	mtgo	DRSC21392
			7759	3.97e5	mtgo	DRSC21743
			4383	2.85e5	capu	DRSC00208
			4320	2.61e5	capu	DRSC00209
			7767	4.47e5	capu	DRSC00434
			21705	7.74e5	capu	DRSC00807
			1.51e5	9.78e5	Adh + Adhr	DRSC01862
			8099	4.08e5	Adh + Adhr	DRSC01863
			7046	5.09e5	Myo28B1	DRSC03375
			10604	5.43e5	dind	DRSC16294
-3			5898	2.44e5	mrn	DRSC10913
			11238	4.34e5	CG17712	DRSC00266
			6543	4.38e5	Nepl10	DRSC07212

Reformatted: results already given
{"gene":"CG9555","DRSC id":"DRSC03264","stable assay Renilla, run 1 (luminescence)":7316,"stable assay firefly, run 1 (luminescence)":4.44e5}
{"gene":"CG30065","DRSC id":"DRSC05420","stable assay Renilla, run 1 (luminescence)":5527,"stable assay firefly, run 1 (luminescence)":3.38e5}
{"gene":"Slh","DRSC id":"DRSC00789","stable assay Renilla, run 1 (luminescence)":6358,"stable assay firefly, run 1 (luminescence)":3.01e5}
{"gene":"Polr3H","DRSC id":"DRSC10817","stable siRNA reporter change":"reporter ratio lowered past the hit cutoff","stable assay Renilla, run 1 (luminescence)":5496,"stable assay firefly, run 1 (luminescence)":5.63e5}
{"gene":"Naprt","DRSC id":"DRSC00630","stable assay Renilla, run 1 (luminescence)":11891,"stable assay firefly, run 1 (luminescence)":3.97e5}
{"gene":"Ip6k","DRSC id":"DRSC04054","stable assay Renilla, run 1 (luminescence)":10167,"stable assay firefly, run 1 (luminescence)":6.46e5}
{"gene":"mRpS21","DRSC id":"DRSC12965","stable assay Renilla, run 1 (luminescence)":3687,"stable assay firefly, run 1 (luminescence)":4.23e5}
{"gene":"mRpS21","DRSC id":"DRSC21357","stable assay Renilla, run 1 (luminescence)":7711,"stable assay firefly, run 1 (luminescence)":4.39e5}
{"gene":"Acp29AB","DRSC id":"DRSC01857","stable assay Renilla, run 1 (luminescence)":6715,"stable assay firefly, run 1 (luminescence)":3.82e5}
{"gene":"sff","DRSC id":"DRSC10590","stable assay Renilla, run 1 (luminescence)":8044,"stable assay firefly, run 1 (luminescence)":3.00e5}
{"gene":"CG13339","DRSC id":"DRSC06373","stable assay Renilla, run 1 (luminescence)":6570,"stable assay firefly, run 1 (luminescence)":3.47e5}

Next entries follow.
siRNA reporter hit score	stable siRNA reporter change	miRNA reporter change	stable assay Renilla, run 1 (luminescence)	stable assay firefly, run 1 (luminescence)	gene	DRSC id
			8939	4.51e5	dmt	DRSC16932
			6086	2.86e5	Zaf1	DRSC16121
			7666	4.25e5	CG9920	DRSC16578
			5067	2.65e5	Cp7Fb	DRSC18034
			5587	4.57e5	Pka-C3	DRSC09402
		reporter ratio raised past the hit cutoff	10589	4.67e5	Pka-C3	DRSC11254
			3543	3.97e5	Blos3	DRSC09573
			7738	2.95e5	Vha36-2	DRSC06294
			9847	6.23e5	CG32102	DRSC22015
			7398	6.16e5	Atet	DRSC00263
			7155	3.65e5	GlyT	DRSC04512
			7276	3.36e5	dj	DRSC12625
			6495	4.46e5	alc	DRSC07062
			10400	6.17e5	alc	DRSC21464
			4712	3.01e5	alc	DRSC23316
			11078	4.64e5	Gk2	DRSC08610
			6703	4.00e5	Rrp47	DRSC20124
			7306	3.24e5	qkr58E-2	DRSC04710
	reporter ratio raised past the hit cutoff		5120	1.18e5	VepD	DRSC22318
			6680	2.74e5	svr	DRSC17293
			6494	4.25e5	svr	DRSC18841
			5214	2.94e5	CG42741	DRSC04593
			10363	7.17e5	CG42741	DRSC22045
			14272	4.79e5	Tudor-SN	DRSC08581
	reporter ratio raised past the hit cutoff		10658	3.54e5	Pcf11	DRSC05983
		reporter ratio lowered past the hit cutoff (active)			Pcf11	DRSC23350
			7268	3.40e5	CG3355	DRSC00598
			4735	4.01e5	CG40245 (retired record)	DRSC21012
			7094	4.07e5	Tsp42Ek	DRSC06187
			4495	3.76e5	CG15369	DRSC18041
			6884	5.58e5	CG9759	DRSC16558
			6134	4.61e5	CG31391	DRSC16047
			8502	3.54e5	Sce	DRSC16825
			8001	5.18e5	IM33	DRSC00476
			6514	2.95e5	CG15773	DRSC18079
			7963	4.45e5	Mybbp1A	DRSC18788
	reporter ratio lowered past the hit cutoff		7932	7.52e5	Cdc45	DRSC17747
			6180	4.26e5	Cdc45	DRSC18164
			4007	4.31e5	Kdsr	DRSC14245
			4928	3.37e5	CG10904	DRSC04084
			8881	5.19e5	dgt5	DRSC07280
			1.37e5	2.07e6	VhaSFD	DRSC03471
			7338	3.61e5	Bacc	DRSC00735
			6327	3.49e5	CG7903	DRSC16338
			5692	2.53e5	CG8300	DRSC18426
			3531	3.05e5	CG8300	DRSC23231
